Assay: Thermal properties by Differential Scanning Calorimetry (DSC)
Details: after preparation

COC(=O)C1=C(C)NC(C)=C(C(=O)OC)C1c1ccccc1[N+](=O)[O-] [Raw nifedipine crystalline powder, Nifedipine]
melting enthalpy (melting energy): 113.4 J/g | melting temperature (endothermic peak): around 172.4 °C

Reference: patent publication US9254268B2, “Compositions comprising lipophilic active compounds and method for their preparation” (SOLUBEST LTD., priority 2007, dated 2016)
